In the supplement of paper PMC12819154, “High-throughput peptide-centric local stability assay extends protein–ligand identification to membrane proteins, tissues and bacteria” (Nature Structural & Molecular Biology, 2025):
Some of the results follow. Most values lie at the level of the controls, where differences are scatter.

Protein sequences, listed by entry. Tags and fused reporters are not part of them. Lines headed by an entry give the natural chain unless they say otherwise; changes in a name come on top.
UniProt Q96D05: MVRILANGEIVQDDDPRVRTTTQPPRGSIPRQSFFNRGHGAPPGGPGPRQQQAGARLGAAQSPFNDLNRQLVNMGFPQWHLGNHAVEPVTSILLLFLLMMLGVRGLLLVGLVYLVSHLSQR
UniProt Q96EX3: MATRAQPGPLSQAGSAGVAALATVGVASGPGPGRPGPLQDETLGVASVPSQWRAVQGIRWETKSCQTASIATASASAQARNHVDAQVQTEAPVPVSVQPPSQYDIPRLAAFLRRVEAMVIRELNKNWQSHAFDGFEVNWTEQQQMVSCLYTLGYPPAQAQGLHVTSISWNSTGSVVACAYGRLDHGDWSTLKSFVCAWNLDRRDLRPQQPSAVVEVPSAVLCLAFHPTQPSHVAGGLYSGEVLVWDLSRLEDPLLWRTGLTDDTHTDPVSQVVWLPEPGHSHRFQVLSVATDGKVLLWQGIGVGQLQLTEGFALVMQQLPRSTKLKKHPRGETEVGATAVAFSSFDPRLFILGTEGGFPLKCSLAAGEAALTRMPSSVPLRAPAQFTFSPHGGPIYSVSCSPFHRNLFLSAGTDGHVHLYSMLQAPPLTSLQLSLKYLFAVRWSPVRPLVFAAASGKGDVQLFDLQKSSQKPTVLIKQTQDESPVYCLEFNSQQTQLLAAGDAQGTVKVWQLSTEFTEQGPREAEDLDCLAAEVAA
UniProt Q969E8: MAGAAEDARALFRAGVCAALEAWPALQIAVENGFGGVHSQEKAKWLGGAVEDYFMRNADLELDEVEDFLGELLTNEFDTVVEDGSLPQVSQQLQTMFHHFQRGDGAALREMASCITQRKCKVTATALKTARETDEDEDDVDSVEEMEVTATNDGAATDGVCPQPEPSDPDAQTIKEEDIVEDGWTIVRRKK
UniProt Q92888: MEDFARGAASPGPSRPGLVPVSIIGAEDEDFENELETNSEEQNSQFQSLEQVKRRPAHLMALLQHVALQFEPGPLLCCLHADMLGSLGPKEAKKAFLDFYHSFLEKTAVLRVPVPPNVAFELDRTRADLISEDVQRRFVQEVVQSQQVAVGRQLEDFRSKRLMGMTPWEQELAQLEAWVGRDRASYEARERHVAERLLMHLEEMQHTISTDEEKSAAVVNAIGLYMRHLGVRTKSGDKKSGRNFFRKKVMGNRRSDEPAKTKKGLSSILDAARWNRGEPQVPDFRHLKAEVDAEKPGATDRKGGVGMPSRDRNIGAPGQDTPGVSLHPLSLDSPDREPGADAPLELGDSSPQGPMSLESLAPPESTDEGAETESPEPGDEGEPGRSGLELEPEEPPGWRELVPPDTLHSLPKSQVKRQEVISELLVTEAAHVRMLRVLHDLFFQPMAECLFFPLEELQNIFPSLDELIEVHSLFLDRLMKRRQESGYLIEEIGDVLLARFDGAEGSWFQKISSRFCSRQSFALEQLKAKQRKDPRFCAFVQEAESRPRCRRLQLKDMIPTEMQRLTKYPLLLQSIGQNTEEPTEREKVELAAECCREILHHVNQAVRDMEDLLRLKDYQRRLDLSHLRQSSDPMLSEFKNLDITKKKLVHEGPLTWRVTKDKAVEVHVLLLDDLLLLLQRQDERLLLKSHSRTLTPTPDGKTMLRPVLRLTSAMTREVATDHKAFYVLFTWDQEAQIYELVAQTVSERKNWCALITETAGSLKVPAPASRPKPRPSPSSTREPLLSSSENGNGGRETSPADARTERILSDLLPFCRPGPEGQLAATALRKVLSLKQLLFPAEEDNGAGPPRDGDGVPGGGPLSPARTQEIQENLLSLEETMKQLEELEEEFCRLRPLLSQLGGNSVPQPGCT
UniProt Q92844: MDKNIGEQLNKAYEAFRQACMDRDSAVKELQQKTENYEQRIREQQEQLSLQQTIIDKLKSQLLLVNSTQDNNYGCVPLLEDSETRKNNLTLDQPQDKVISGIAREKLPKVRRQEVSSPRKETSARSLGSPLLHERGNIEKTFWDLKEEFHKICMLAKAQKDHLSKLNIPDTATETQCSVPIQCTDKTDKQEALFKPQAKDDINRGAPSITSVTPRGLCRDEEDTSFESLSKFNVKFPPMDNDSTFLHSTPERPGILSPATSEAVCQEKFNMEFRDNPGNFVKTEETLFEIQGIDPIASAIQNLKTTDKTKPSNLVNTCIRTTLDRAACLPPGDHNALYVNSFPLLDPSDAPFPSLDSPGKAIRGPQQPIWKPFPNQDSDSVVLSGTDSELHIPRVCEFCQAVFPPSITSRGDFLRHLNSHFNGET
UniProt Q93074, whole entry: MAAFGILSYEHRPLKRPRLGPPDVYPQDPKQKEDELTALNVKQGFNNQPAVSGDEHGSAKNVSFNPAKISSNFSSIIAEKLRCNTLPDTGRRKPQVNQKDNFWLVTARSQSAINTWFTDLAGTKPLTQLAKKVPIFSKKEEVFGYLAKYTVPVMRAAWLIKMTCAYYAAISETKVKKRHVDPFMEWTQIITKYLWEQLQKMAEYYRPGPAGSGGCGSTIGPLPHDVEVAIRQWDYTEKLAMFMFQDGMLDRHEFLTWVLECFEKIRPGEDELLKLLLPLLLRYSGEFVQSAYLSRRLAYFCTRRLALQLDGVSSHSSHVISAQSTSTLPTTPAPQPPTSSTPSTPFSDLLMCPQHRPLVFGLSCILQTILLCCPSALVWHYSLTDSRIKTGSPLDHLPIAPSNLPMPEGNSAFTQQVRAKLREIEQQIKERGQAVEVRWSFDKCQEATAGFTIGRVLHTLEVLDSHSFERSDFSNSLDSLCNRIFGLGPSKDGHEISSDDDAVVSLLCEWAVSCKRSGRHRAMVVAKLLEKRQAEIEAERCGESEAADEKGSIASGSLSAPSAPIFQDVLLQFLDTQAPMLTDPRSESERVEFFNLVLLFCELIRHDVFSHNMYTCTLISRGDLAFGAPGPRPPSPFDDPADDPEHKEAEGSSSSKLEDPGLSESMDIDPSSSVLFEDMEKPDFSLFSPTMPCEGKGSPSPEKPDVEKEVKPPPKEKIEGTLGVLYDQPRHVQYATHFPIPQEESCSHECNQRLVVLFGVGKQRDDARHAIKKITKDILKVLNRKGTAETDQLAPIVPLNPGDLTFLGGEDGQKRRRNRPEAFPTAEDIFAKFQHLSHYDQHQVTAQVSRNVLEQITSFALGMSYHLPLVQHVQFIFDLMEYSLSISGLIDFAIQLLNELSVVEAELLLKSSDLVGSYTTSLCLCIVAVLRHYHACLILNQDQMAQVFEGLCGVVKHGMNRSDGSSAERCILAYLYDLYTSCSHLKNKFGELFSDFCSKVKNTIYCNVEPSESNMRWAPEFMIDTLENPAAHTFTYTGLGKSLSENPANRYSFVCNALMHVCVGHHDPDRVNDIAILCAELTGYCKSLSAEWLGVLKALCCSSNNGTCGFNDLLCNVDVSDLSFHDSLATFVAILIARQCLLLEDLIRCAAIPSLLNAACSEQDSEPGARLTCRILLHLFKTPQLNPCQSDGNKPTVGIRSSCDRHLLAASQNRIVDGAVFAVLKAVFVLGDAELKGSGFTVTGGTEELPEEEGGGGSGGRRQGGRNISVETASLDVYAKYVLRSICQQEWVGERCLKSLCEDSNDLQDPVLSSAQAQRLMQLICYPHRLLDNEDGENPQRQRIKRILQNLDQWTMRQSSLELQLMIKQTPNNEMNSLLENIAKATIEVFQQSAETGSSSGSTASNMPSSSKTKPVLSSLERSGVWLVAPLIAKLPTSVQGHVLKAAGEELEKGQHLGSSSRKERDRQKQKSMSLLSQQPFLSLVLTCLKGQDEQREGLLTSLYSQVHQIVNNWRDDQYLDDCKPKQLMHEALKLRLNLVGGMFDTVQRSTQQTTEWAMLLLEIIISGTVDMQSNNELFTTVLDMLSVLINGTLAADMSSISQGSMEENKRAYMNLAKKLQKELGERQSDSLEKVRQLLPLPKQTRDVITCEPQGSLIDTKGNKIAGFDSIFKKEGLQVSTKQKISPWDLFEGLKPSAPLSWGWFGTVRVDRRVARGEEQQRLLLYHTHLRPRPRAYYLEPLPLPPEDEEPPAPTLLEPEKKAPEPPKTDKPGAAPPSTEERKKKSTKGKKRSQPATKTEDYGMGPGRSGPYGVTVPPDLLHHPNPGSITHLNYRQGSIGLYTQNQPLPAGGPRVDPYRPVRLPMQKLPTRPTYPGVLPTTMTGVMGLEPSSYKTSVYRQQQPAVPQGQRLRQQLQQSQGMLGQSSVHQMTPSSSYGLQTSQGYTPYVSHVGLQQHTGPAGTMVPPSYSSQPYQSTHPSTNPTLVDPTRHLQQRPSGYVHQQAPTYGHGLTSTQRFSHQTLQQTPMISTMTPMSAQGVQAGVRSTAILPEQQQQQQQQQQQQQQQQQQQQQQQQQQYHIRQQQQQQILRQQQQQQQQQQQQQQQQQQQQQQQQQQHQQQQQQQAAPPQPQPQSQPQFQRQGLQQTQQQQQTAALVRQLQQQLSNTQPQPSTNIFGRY
UniProt Q969H6: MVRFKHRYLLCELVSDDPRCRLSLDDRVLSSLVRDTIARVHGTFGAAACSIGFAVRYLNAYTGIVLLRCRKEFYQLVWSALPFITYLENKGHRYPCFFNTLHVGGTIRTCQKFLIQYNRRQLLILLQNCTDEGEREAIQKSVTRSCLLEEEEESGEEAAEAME
UniProt Q96EZ8, whole entry: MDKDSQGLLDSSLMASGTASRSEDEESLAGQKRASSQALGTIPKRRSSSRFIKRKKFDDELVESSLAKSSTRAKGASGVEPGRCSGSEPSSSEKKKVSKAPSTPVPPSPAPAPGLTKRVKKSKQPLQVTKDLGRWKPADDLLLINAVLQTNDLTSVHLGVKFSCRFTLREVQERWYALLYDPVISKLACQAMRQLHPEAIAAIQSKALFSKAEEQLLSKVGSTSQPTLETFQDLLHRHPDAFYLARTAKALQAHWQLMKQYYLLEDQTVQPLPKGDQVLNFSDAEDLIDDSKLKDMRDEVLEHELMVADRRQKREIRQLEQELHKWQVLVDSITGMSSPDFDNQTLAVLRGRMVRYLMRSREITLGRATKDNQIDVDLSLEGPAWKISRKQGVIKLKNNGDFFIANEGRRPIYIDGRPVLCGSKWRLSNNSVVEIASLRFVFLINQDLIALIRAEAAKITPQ
UniProt Q96DF8: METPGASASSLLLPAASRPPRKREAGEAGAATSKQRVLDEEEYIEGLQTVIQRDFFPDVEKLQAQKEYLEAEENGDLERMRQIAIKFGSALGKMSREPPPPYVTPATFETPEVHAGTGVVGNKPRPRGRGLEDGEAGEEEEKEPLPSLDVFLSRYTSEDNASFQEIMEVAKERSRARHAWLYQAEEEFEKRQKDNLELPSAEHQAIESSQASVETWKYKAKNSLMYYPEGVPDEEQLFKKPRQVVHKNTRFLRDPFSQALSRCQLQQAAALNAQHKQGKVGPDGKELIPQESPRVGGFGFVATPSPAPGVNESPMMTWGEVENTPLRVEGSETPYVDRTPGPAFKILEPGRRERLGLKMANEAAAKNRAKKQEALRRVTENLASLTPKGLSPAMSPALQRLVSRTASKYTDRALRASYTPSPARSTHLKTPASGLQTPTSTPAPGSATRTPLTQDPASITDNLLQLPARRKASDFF
UniProt Q969X6: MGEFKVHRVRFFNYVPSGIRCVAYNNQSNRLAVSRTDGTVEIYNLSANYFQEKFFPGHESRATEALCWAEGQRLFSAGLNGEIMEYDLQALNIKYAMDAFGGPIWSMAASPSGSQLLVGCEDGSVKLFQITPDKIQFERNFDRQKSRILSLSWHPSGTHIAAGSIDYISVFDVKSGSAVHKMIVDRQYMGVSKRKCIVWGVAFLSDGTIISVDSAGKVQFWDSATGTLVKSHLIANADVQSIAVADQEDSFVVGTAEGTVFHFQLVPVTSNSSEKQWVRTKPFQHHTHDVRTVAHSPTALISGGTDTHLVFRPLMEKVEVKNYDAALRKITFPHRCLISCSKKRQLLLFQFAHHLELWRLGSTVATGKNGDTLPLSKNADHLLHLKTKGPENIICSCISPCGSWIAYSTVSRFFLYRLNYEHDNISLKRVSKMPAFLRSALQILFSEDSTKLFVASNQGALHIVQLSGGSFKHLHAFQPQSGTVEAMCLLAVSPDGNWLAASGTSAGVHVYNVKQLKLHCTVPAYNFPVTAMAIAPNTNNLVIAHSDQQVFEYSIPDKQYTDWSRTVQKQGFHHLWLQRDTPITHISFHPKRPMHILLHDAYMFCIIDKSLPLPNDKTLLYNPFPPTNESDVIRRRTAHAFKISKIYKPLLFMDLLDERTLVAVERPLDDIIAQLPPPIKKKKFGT

The targets below were run with Cc1nc(Nc2ncc(C(=O)Nc3c(C)cccc3Cl)s2)cc(N2CCN(CCO)CC2)n1 [dasatinib] (assay: log2 fold change of tryptic peptide abundance, ligand vs vehicle (limited proteolysis) (log2 ratio); higher = more trypsin-susceptible (destabilized)). Conditions: ligand concentration: 5 uM; sample: K562 cleared lysate.

How did the log2 fold change turn out when “UniProt Q96D05 (peptide sequence: VRILANGEIVQDDDPR, peptide start residue: 2)” was run?
The log2 fold change was -0.144.

How did the log2 fold change turn out when “WDR34 (peptide sequence: SFVCAWNLDRR, peptide start residue: 193) (UniProt Q96EX3)” was run?
The log2 fold change was 0.331.

For “TSR2 (peptide sequence: EEDIVEDGWTIVRR, peptide start residue: 176) (UniProt Q969E8)”, which log2 fold change is on record?
The log2 fold change was -0.324.

“UniProt Q92888 (peptide sequence: QEVISELLVTEAAHVR, peptide start residue: 418)” was tested. Which log2 fold change did it give?
Its log2 fold change is 0.286.

For “TANK (peptide sequence: KNNLTLDQPQDK, peptide start residue: 86) (UniProt Q92844)”, which log2 fold change is on record?
The log2 fold change was -0.175.

“MED12 (peptide sequence: QKEDELTALNVK, peptide start residue: 31) (UniProt Q93074)” was tested. Which log2 fold change did it give?
Its log2 fold change is -0.27.

With “POP5 (peptide sequence: VHGTFGAAACSIGFAVR, peptide start residue: 40) (UniProt Q969H6)” as the target, how does the log2 fold change read?
Its log2 fold change is -0.223.

“MCRS1 (peptide sequence: SKQPLQVTK, peptide start residue: 122) (UniProt Q96EZ8)” was tested. Which log2 fold change did it give?
The log2 fold change was -0.26.

How did the log2 fold change turn out when “UniProt Q96DF8 (peptide sequence: ASYTPSPAR, peptide start residue: 416)” was run?
The log2 fold change was -0.251.

With “UniProt Q969X6 (peptide sequence: QGFHHLWLQR, peptide start residue: 570)” as the target, how does the log2 fold change read?
Its log2 fold change is 0.154.
